Measurements taken from publication PMC7819943, “Rice protein-binding microarrays: a tool to detect cis-acting elements near promoter regions in rice”.
The list shows a part of the results.

What follows are sequences tested against T1, OsSMF1 (Oryza sativa, UniProt Q6ZLB0 1-436) (assay: protein-binding microarray (RPBM); PBS, 2% BSA, 51.3 ng/ul salmon testes DNA, 50 uM zinc acetate, 200 nM TF, 25 C, 1 h; high values mean tight binding). Conditions: protein: recombinant; tags: N-terminal polyhistidine and DsRed monomer fusion (pET32a); chain copies: 2; label: CyDye5-dUTP incorporated in the synthesized complementary strand; 3' TTTTT single-stranded linker to array surface; dsDNA, one strand shown.
T1 sequence: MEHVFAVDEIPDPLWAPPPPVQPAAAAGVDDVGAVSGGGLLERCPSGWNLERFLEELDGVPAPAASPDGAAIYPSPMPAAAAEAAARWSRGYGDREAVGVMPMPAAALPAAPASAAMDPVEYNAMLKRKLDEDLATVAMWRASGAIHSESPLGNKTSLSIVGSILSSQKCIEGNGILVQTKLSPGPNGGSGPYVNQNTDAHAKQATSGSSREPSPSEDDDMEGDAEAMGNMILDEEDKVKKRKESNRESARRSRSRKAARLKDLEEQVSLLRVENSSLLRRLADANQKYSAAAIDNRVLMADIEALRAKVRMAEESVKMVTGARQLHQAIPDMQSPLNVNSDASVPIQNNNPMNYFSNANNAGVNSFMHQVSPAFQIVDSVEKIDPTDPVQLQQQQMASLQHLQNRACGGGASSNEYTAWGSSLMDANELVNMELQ
Procedure, shortened: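 In PBS with 2% BSA, salmon testes DNA and 50 µM zinc acetate, 200 nM protein was incubated on a custom Agilent array at 25 °C for 1 h and then washed off. The array had been made double-stranded by primer extension with Cy5-dUTP and blocked with 2% BSA. The proteins were transcription factors fused N-terminally to polyhistidine and DsRed, expressed in E. coli BL21-CodonPlus and purified on Ni–NTA. The binding signal is per-feature fluorescence intensity (arbitrary units) from an Axon 4000B scanner.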
For “AAAATACAGGTTAGACCCATGCCGACCAGAAGTCATCCAGCGGAGTCACCTAGTGCAG”, the binding signal was 17600 fluorescence intensity (a.u.).
“ACCTTTTCACACGGTGTTCGTCCACCGTGTGCAACCTTGTCGGAGTCACCTAGTGCAG” was tested, and the binding signal was 4120 fluorescence intensity (a.u.).
In the case of “TACTGTATGTTGGTAGCTTATTAGCGTGCATGACTGCATGCGGAGTCACCTAGTGCAG”, the binding signal is reported as 26700 fluorescence intensity (a.u.).
“GCCGTCGTGCCCTCGCATGCAACGTGTTCGTCCGACGACACGGAGTCACCTAGTGCAG” was tested, and the binding signal was 5560 fluorescence intensity (a.u.).
For “CAGTTTGTTGGGATGCTGACAGCACCCTCTTAGACTAGCACGGAGTCACCTAGTGCAG”, the binding signal was 5070 ± 316 fluorescence intensity (a.u.).
For “GGATATGACAATTGACCATTCATGCCCCTTCATCTTATTACGGAGTCACCTAGTGCAG”, the binding signal was 3540 fluorescence intensity (a.u.).
For “CTTATGGAGCTTTACGTTGTTCTAGTTACTTGAAGCTCCACGGAGTCACCTAGTGCAG”, the binding signal was 5920 fluorescence intensity (a.u.).
“ACCTCTTAATGAGAATGTGACTCATCCTAATACAACCAACCGGAGTCACCTAGTGCAG” was tested, and the binding signal was 9830 fluorescence intensity (a.u.).
“GCAACGTATAAGAGCGAGTACAATAGCATGCTACAAGTTACGGAGTCACCTAGTGCAG” was tested, and the binding signal was 31900 fluorescence intensity (a.u.).
For “AAAATATGCTGACATGGATATCTTATAGAGAGCCTATAGACGGAGTCACCTAGTGCAG”, the binding signal was 5890 fluorescence intensity (a.u.).
“TTCCTGTTCTATTCTTTCAGCAATGGTTTAGGTCAACACACGGAGTCACCTAGTGCAG” was tested, and the binding signal was 19100 fluorescence intensity (a.u.).
“ACATGGGCTTTGAGAAATGTAAATATTAATGAATCGCTTGCGGAGTCACCTAGTGCAG” was tested, and the binding signal was 3410 fluorescence intensity (a.u.).
In the case of “GGGCCCGGAGGACGACGAGGACGACAGCGAGGACGTCCCCCGGAGTCACCTAGTGCAG”, the binding signal is reported as 3300 fluorescence intensity (a.u.).
“CTATTGTTCAAGATTTCGTCATGCTTATGACCGCAAAACCCGGAGTCACCTAGTGCAG” was tested, and the binding signal was 4240 fluorescence intensity (a.u.).
In the case of “GCAGATACGAATGTTGCCACTATAAATACACGTGTACGTTCGGAGTCACCTAGTGCAG”, the binding signal is reported as 8290 fluorescence intensity (a.u.).
In the case of “ATGCGCATCTTCCTCCCTCATGACATTGCAGTTCCAAGTACGGAGTCACCTAGTGCAG”, the binding signal is reported as 3660 fluorescence intensity (a.u.).
With “TTAGGCCAATGCATTACTGCTAGCAGCTGCCTATCAGTTGCGGAGTCACCTAGTGCAG” the binding signal was 3180 fluorescence intensity (a.u.).
With “CATGGTCTATGGCATTCGTAACGGATTGAACGCCACCGGCCGGAGTCACCTAGTGCAG” the binding signal was 21800 fluorescence intensity (a.u.).
With “TTTGCCTCCCTGTTCCTCTGTTGGTCACAGCAGATGCTGACGGAGTCACCTAGTGCAG” the binding signal was 4370 fluorescence intensity (a.u.).
In the case of “GATGCGATGCGATGTGATGGCGATGGCGTCATCCGAGCGCCGGAGTCACCTAGTGCAG”, the binding signal is reported as 4550 fluorescence intensity (a.u.).
With “ACGGCCTTCATCCTGGGCCACTCCCACGTGCAGTGCAAGCCGGAGTCACCTAGTGCAG” the binding signal was 3430 fluorescence intensity (a.u.).
With “TTCGTCCGTGCGTGCGTGCGTGCGCGACTCGCTCTCACACCGGAGTCACCTAGTGCAG” the binding signal was 10700 fluorescence intensity (a.u.).
“AAATGTCAACGTGTCACTAGGAAAAGTCAAAATAATTCCCCGGAGTCACCTAGTGCAG” was tested, and the binding signal was 6400 fluorescence intensity (a.u.).
For “CTTCATACTGCAGTATCTGAAAAGATGTCATTGTAAAGTTCGGAGTCACCTAGTGCAG”, the binding signal was 3140 fluorescence intensity (a.u.).
“CTCCCATTTTAAGTGGTAGTTGTAAATTTCTGTGTTTAACCGGAGTCACCTAGTGCAG” was tested, and the binding signal was 3320 fluorescence intensity (a.u.).
“CCTAGGATAGGATGTGACATATTCTATACCAACGAATCTGCGGAGTCACCTAGTGCAG” was tested, and the binding signal was 3680 fluorescence intensity (a.u.).
For “CTCTCGAGCTCACCCCGTCATCCACCTCACCCGCGCCGTCCGGAGTCACCTAGTGCAG”, the binding signal was 5820 fluorescence intensity (a.u.).
With “CGGTATTTTCAGCTCTTTGAGGTGGTGGGCTGGTGGCGTACGGAGTCACCTAGTGCAG” the binding signal was 3290 fluorescence intensity (a.u.).
With “GGATATAGTTTTATAAACTAGTCATGTGTTGTGTGGTTGACGGAGTCACCTAGTGCAG” the binding signal was 3840 fluorescence intensity (a.u.).
For “GGCTACGTCACTCAGCCGTCAGTTACTCGTCAAATCACCACGGAGTCACCTAGTGCAG”, the binding signal was 7060 fluorescence intensity (a.u.).
In the case of “TTCACTCGAGTTGAGTTGGTCCAGGATGTTGCCCACAGTGCGGAGTCACCTAGTGCAG”, the binding signal is reported as 26700 fluorescence intensity (a.u.).
In the case of “GCTTCGTGGGCCTCTCACTTGAGTCACTGGCACTCCATTCCGGAGTCACCTAGTGCAG”, the binding signal is reported as 3570 fluorescence intensity (a.u.).
With “TGCGCTTGCCACATCAGCCTGGCCATGAACAAAGTTTTCGCGGAGTCACCTAGTGCAG” the binding signal was 13200 fluorescence intensity (a.u.).
“TACTCTTTTCTTTGTCATGGTTTTCTCATTTTCCCCTATGCGGAGTCACCTAGTGCAG” was tested, and the binding signal was 3580 fluorescence intensity (a.u.).
“TCATATGCTGAGAGCCTGGAACATCAGCTGTGCTGCGTGGCGGAGTCACCTAGTGCAG” was tested, and the binding signal was 4510 fluorescence intensity (a.u.).
With “AGGTAGTGGTGGATGGGGAGGAGGAGGAGCCTTAGGTAGTCGGAGTCACCTAGTGCAG” the binding signal was 3850 fluorescence intensity (a.u.).
In the case of “TAGGGTTGGCGGGTGGCGAGGCGACTCGGCTGTTCCCCATCGGAGTCACCTAGTGCAG”, the binding signal is reported as 3570 fluorescence intensity (a.u.).
In the case of “CTCGCTGCTGGTGGTGGTGGAGGATAGGTACAAGCAGCTGCGGAGTCACCTAGTGCAG”, the binding signal is reported as 3540 fluorescence intensity (a.u.).
With “TGCCATGTGGATATTTGGAAGGCGTGGCGGCATGTGCCCCCGGAGTCACCTAGTGCAG” the binding signal was 3330 fluorescence intensity (a.u.).
For “TTGCTCATGTCATGTGGTCACTCCCCAAGTCACCAGCATCCGGAGTCACCTAGTGCAG”, the binding signal was 3250 fluorescence intensity (a.u.).
For “ATGGAGGGTCGGCCTTATGATGACACCAACTATGTCTATGCGGAGTCACCTAGTGCAG”, the binding signal was 3880 fluorescence intensity (a.u.).
In the case of “GACGTCGCGCACACGTCGGCGTCGCTGCTCTGGCTGTACGCGGAGTCACCTAGTGCAG”, the binding signal is reported as 5790 fluorescence intensity (a.u.).
